The values below come from paper PMC7819943, “Rice protein-binding microarrays: a tool to detect cis-acting elements near promoter regions in rice”.

By UniProt entry, the sequences of proteins in these tests, tags left out.
UniProt Q0JBA9, entry or part of it: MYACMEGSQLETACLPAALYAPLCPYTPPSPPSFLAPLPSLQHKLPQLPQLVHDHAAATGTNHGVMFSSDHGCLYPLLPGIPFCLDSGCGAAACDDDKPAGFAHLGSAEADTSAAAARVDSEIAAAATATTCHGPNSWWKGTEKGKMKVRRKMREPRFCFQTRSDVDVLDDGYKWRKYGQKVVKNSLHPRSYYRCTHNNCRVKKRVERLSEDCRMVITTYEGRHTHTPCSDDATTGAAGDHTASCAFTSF

The other results are listed elsewhere or left out.

This assay has as its target OsWRKY34 (Oryza sativa, UniProt Q0JBA9 1-250). The experiment in a line: protein-binding microarray (RPBM); PBS, 2% BSA, 51.3 ng/ul salmon testes DNA, 50 uM zinc acetate, 200 nM TF, 25 C, 1 h; high values mean tight binding. The following applies: protein: recombinant; tags: N-terminal polyhistidine and DsRed monomer fusion (pET32a); label: CyDye5-dUTP incorporated in the synthesized complementary strand; 3' TTTTT single-stranded linker to array surface; dsDNA, one strand shown. The procedure, abridged:
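Transcription factors, each fused N-terminally to a polyhistidine tag and DsRed, were expressed in E. coli BL21-CodonPlus and purified on Ni–NTA. A custom Agilent array was made double-stranded by primer extension with Cy5-dUTP and blocked with 2% BSA. It was incubated with 200 nM protein in PBS, 2% BSA, salmon testes DNA and 50 µM zinc acetate at 25 °C for 1 h, then washed. The binding signal is per-feature fluorescence intensity (arbitrary units) read on an Axon 4000B scanner.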
Regarding “AGCTCCATGTCTACCGCCACCGGAGCTCCGGCCATGTCCGCGGAGTCACCTAGTGCAG”, the binding signal is 9530 fluorescence intensity (a.u.).
To “ATGCATTGTTGTCATTCGCACCTACCTGTAACCAGACCTTCGGAGTCACCTAGTGCAG” belongs 9140 fluorescence intensity (a.u.); to “GCACAAGAGTAACACCCTTCATTTTTTTTCTTGCTACCTCCGGAGTCACCTAGTGCAG”, 8980 fluorescence intensity (a.u.).
As to “GTGGTTTGCCCCTAGCTGTTGTCACTATCGCAAGTCTTTTCGGAGTCACCTAGTGCAG”, the binding signal was 10600 fluorescence intensity (a.u.).
With “TTAATCTCAGTTTAGAATCCATGCTGTTTCTATCTCAAATCGGAGTCACCTAGTGCAG” the figure was 8610 fluorescence intensity (a.u.); with “GTGTGTGCCTCCTTTTCTCTTCTTCAGTTTTCAACTCAAACGGAGTCACCTAGTGCAG”, 9440 fluorescence intensity (a.u.); with “TTTTACCCGCCAAGTATCTTGTTCCTCCACGCTATATATCCGGAGTCACCTAGTGCAG”, 11700 fluorescence intensity (a.u.).
With “GAGCACTGTCGTTACTTTTTTCTTTTGGAACCAACACTGTCGGAGTCACCTAGTGCAG” the figure was 11100 fluorescence intensity (a.u.).
With “ACAGCTCACTTTCTTGGCCTCCTTCCTTTCCAGCTCGGTTCGGAGTCACCTAGTGCAG” the figure was 11000 fluorescence intensity (a.u.); with “GAAAAGTTGTTGTACCCAAATTTTCCAAATTGTTTTTTTTCGGAGTCACCTAGTGCAG”, 8030 fluorescence intensity (a.u.).
Consider “TTCCTTCGGCGTTTTTTCATCCATGACCGGGTACATGACACGGAGTCACCTAGTGCAG”, for which the binding signal is 12000 fluorescence intensity (a.u.).
For the sequence “TCCACCACCACCACCATGCATCACCACGTAGACAAATTCACGGAGTCACCTAGTGCAG”, the binding signal was 9840 fluorescence intensity (a.u.).
On to “TAACAGTATCATTTGATAGCACAATATAAGGTGTTTTGCTCGGAGTCACCTAGTGCAG”, for which the binding signal is 28800 fluorescence intensity (a.u.).
With “AACACGCACGCGCCCGCGCACGAGCTTATCTTTTGCCAACCGGAGTCACCTAGTGCAG” the figure was 9620 fluorescence intensity (a.u.); with “ATTCAAAGTGTACCCATTTGTGTTTTTTTTACACGTGAAGCGGAGTCACCTAGTGCAG”, 8860 fluorescence intensity (a.u.).
“GGTTAGGTGGCATTTGAATTTAAAACGTATATGTGGACTCCGGAGTCACCTAGTGCAG”: the binding signal was 13900 fluorescence intensity (a.u.).
With “ACTTTCTCTTCTCAACCAATCACATACTTCCTCTAATCATCGGAGTCACCTAGTGCAG” the figure was 9900 fluorescence intensity (a.u.); with “ATGCACATCCTCGTGCCCTCCATCTCCAACCACGACTTGACGGAGTCACCTAGTGCAG”, 8140 fluorescence intensity (a.u.); with “CCTCATCCCGTCCAGCGTTCACCCGACGTCGCCCGTCGCACGGAGTCACCTAGTGCAG”, 10500 fluorescence intensity (a.u.).
To “CCGTCATTGCCACCGGCCTCTGCCGCAAGCGCCGCTCCCGCGGAGTCACCTAGTGCAG” belongs 9690 fluorescence intensity (a.u.).
To “GTTATGAGATTAGTTTTTTTATTCGTGTCCGAAAATCACTCGGAGTCACCTAGTGCAG” belongs 9890 fluorescence intensity (a.u.); to “CAATGCTGATATATCCAATATGCTGTCTGTTATGATACATCGGAGTCACCTAGTGCAG”, 8820 fluorescence intensity (a.u.); to “CATCCGACCTCAACTCCTCTGTCCTCTACTACGCATCTCTCGGAGTCACCTAGTGCAG”, 14100 fluorescence intensity (a.u.).
